From publication PMC6691379
No constants are given. Whether binding was seen depends on the method and setting. In cells and extracts the contact can be indirect. Some entries that bind do so weakly or less than the wild type.

The chains behind the UniProt entries cited, without tags or fusion partners.
UniProt P35222: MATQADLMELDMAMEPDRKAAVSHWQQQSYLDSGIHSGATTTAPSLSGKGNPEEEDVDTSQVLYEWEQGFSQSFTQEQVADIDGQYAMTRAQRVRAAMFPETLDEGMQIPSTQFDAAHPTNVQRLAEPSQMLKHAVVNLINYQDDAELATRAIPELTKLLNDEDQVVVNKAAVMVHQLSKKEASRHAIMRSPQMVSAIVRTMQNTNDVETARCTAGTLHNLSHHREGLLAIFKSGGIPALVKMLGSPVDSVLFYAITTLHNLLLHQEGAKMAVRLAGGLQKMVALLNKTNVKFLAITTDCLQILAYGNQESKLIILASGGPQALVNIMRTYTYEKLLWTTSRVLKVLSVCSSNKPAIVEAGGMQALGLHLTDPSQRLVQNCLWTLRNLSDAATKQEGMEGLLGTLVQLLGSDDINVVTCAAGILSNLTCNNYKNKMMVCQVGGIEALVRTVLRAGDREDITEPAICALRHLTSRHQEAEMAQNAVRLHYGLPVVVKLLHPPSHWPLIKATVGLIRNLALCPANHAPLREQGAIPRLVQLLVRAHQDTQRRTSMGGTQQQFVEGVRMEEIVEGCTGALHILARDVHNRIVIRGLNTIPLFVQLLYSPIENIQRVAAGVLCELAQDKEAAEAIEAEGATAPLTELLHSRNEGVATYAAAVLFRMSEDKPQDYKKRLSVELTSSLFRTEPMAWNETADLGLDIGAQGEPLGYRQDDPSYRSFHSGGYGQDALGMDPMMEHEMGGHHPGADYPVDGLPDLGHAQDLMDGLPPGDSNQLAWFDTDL
UniProt Q16665: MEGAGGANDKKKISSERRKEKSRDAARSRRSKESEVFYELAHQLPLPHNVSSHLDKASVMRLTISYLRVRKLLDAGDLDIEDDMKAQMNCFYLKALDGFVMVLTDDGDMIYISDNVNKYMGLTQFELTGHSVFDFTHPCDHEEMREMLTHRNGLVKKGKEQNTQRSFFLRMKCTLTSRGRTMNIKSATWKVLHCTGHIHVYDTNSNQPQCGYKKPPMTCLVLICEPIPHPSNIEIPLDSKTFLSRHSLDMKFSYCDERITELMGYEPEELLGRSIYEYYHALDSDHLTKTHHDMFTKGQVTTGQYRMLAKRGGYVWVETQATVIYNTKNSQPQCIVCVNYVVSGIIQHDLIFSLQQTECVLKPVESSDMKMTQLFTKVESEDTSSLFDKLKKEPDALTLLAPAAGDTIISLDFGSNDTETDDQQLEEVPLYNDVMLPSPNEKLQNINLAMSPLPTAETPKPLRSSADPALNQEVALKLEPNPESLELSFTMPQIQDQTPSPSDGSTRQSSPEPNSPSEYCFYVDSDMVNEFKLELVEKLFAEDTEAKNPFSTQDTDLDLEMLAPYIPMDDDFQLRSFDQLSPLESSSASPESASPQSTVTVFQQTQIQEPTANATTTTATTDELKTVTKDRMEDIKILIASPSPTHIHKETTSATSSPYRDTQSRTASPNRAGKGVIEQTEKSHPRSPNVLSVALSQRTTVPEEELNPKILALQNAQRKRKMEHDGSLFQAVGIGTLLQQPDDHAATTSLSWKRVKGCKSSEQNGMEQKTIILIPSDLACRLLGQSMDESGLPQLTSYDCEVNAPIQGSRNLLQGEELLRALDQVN
UniProt P36402: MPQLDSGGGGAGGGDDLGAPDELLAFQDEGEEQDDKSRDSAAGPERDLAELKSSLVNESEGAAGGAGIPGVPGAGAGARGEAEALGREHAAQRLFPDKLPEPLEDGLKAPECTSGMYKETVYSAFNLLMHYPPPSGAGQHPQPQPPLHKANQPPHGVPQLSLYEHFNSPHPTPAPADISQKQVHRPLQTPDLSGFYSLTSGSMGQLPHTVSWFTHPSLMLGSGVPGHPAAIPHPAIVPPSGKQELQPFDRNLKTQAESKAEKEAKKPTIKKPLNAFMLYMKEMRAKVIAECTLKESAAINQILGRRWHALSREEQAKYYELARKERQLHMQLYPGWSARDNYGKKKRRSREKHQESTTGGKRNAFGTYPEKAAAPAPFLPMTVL

Legend:
[1] = target: β-catenin (human (endogenous in primary GBM cells)) (UniProt P35222); assay: co-IP; lysates of primary GBM cells treated or not with Wnt3a (30 ng/ml) in hypoxia (2% O2) or normoxia (20% O2); lysis buffer with Chapso 1%; IP with anti-β-catenin or anti-HIF-1α and protein A/G microbeads, irrelevant IgGs as control; Western blot; for the HIF-1α IP only hypoxic cells are shown
[2] = target: Hypoxia Inducible Factor (HIF)-1α (human (endogenous in primary GBM cells)) (UniProt Q16665); assay: as above

binding [1]	binding [2]	Substance
binds	–	Hypoxia Inducible Factor (HIF)-1α (from UniProt Q16665 1-826)
binds	binds	TCF1 (from UniProt P36402 1-384)
